Measurements published in patent US10280241B2, “Tackifier compounds and methods of using the same” (Iowa State University Research Foundation, Inc., priority 2012, dated 2019).
For at least one compound, name, drawing or mass did not settle the structure.

test: Water solubility of tackifiers; assay type: physicochemical
Source text: Altering the identity of the acid anhydride altered tackifier properties.

Compound | Water soluble?
O=C(O)CCC(=O)OC1COC2C(OC(=O)CCC(=O)O)COC12 (stereo not shown) [3a] | Y
O=C(O)CCCC(=O)O[C@H]1CO[C@H]2[C@@H]1OC[C@H]2OC(=O)CCCC(=O)O [3b] | N
O=C(O)CCC(=O)O[C@@H]1CO[C@H]2[C@@H]1OC[C@H]2OC(=O)CCC(=O)O [5a] | Y
O=C(O)CCCC(=O)O[C@@H]1CO[C@H]2[C@@H]1OC[C@H]2OC(=O)CCCC(=O)O [5b] | N
